Results taken from US20040229960A1, “Compositions and methods of administering tubulin binding agents for the treatment of ocular diseases” (priority 2001, published 2004).
At least one structure is not confirmed: it was looked up by name or label, or the drawing left a doubt.

Legend:
[1] = tested on: pathological myopia; experiment: Human patient with pathological myopia, phase I/II study; type: in vivo; conditions: Day 8 after 27 mg/m2 i.v. infusion
Source text: A person was originally examined on Day One after complaining of visual obstructions in their left eye. The patient had received ocular lens implants in both eyes approximately 2 years earlier to correct for myopia. The patient was diagnosed with pathological myopia (also known as proliferative myopathy and myopic macular degeneration) and received a total of four treatments of Photodynamic Therapy (PDT, Visudyne™) in the left eye over the course of the next 8 months. […] In June 2003, the patient was diagnosed with pathological myopia in the right eye as well.
About 3 months later, the patient was enrolled in an open-label, pilot (phase I/II), dose-escalation safety and tolerability study of CA4P. At that time, the patient's best corrected visual acuity was 20/50-3 in the left eye and 20/25-3 in the right eye, as determined by a Snellen back-lit visual acuity test. […] On Day One of the study, the patient began treatment with an intravenous infusion of CA4P (free acid), at a dose of 27 mg/m2, over a 10 minute period. […] The patient received second, third, and fourth infusions of CA4P on Days 8, 15, and 22 of the study, with a maintenance of visual acuity and no active leakage in either eye.

[2] = tested on: subfoveal choroidal neovascularization secondary to age-related macular degeneration; experiment: Human patients with age-related macular degeneration, phase I/II study; type: in vivo; conditions: 27 mg/m2 i.v. on Days 1, 8, 15, 22; three patients

COc1ccc(/C=C\c2cc(OC)c(OC)c(OC)c2)cc1OP(=O)([O-])[O-].[Na+].[Na+] [CA4P, combretastatin A4 disodium phosphate]
Visual acuity, right eye (Snellen) ([1]; baseline 20/25-3): 20/20-0
Visual acuity, left eye (Snellen) ([1]; baseline 20/50-3): 20/20-1
Improvement in visual acuity tests [2]: 2 or 3
